Consider one molecule from PMC9569902.

The chains behind the UniProt entries cited, without tags or fusion partners.
UniProt P01106: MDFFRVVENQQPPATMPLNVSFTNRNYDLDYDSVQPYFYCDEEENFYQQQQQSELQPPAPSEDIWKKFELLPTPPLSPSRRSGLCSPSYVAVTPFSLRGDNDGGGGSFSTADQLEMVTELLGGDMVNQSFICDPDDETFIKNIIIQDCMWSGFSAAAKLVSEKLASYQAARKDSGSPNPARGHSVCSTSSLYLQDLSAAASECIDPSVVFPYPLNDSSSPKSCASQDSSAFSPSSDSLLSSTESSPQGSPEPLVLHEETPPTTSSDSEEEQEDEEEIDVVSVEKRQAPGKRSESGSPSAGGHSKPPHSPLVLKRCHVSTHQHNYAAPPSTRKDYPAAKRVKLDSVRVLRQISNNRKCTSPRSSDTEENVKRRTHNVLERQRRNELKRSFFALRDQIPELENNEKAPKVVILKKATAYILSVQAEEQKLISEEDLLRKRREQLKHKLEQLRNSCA

Results are given in words; binding and its absence hold for the method and conditions named. Binding seen in cells or lysates may run through a third protein. Some binding calls cover weakened binding; strength is not graded here.

The experiment has as its target c-MYC (UniProt P01106). Nature of the experiment: co-IP; IP to detect the interaction between c-MYC and FBXO32; cells, precipitating antibody and buffer not stated for this experiment.

B1: F-Box Protein 32 (FBXO32) (protein, UniProt Q969P5 1-355)
chain: MPFLGQDWRSPGQNWVKTADGWKRFLDEKSGSFVSDLSSYCNKEVYNKENLFNSLNYDVAAKKRKKDMLNSKTKTQYFHQEKWIYVHKGSTKERHGYCTLGEAFNRLDFSTAILDSRRFNYVVRLLELIAKSQLTSLSGIAQKNFMNILEKVVLKVLEDQQNIRLIRELLQTLYTSLCTLVQRVGKSVLVGNINMWVYRMETILHWQQQLNNIQITRPAFKGLTFTDLPLCLQLNIMQRLSDGRDLVSLGQAAPDLHVLSEDRLLWKKLCQYHFSERQIRKRLILSDKGQLDWKKMYFKLVRCYPRKEQYGDTLQLCKHCHILSWKGTDHPCTANNPESCSVSLSPQDFINLFKF
Take B1: the binding result was “binds”.
